For this assay, the target named is SKP1 tagged with 1D4 (mouse) (UniProt Q9WTX5). The experiment in a line: co-IP; Fbxo24 (WT or ΔF)-FLAG co-expressed with Skp1-1D4 in HEK293T cells; 1% Triton X-100 lysis buffer (50 mM Tris-HCl pH 7.4, 150 mM NaCl); IP with anti-1D4 or anti-FLAG antibody on Protein G magnetic beads, 1 hr at 4°C; immunoblotting. For orientation: A western blot detects proteins with antibodies after separation by electrophoresis.

Amino acid sequences for entries named in this document (tags omitted). A change or cut given only in a name is not applied to a line headed by its entry.
UniProt Q9WTX5: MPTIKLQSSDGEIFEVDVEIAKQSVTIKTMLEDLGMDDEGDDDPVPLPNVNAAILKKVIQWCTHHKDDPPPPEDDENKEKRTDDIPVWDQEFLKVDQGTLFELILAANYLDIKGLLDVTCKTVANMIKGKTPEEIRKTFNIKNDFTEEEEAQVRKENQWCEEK
UniProt Q9D417: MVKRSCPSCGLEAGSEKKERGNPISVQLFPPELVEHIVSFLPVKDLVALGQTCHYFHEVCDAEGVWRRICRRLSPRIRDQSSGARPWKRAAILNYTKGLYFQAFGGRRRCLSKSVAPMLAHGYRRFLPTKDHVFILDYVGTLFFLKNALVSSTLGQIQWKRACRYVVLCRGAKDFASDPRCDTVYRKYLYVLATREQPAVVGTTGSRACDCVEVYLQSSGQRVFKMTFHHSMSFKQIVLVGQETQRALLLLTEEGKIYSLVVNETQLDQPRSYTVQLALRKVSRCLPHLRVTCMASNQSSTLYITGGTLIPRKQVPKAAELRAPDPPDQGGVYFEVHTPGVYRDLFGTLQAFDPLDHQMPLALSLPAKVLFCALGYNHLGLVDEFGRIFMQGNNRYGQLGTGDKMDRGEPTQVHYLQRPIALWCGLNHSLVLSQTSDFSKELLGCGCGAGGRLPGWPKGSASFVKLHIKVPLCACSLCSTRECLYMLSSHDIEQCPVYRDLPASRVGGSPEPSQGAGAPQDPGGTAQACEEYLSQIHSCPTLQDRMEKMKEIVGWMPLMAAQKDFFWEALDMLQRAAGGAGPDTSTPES

These are yes or no findings as the source states them, for the method shown. In cells and extracts the contact can be indirect.

Regarding “FBXO24 tagged with 3×FLAG, without the F-box domain (ΔF) (from UniProt Q9D417)”, the binding result is “no binding”.

Source of the values: article PMC11335345.
